Laboratory results from patent US20180125816A1, “SAROGLITAZAR MAGNESIUM FOR THE TREATMENT OF CHYLOMICRONEMIA SYNDROME” (CADILA HEALTHCARE LIMITED, priority 2015, published 2018).
At least one compound was matched to its structure with a doubt left.

Test system: Zucker fa/fa rats
Experiment: Fatty tolerance test with 13C-palmitate/corn oil after 14 days repeated dosing: hyper-chylomicronemia and chylomicron dynamics
Assay type: in vivo, rat
Conditions: 150 mg/kg
Description: In this study, the effect of Compound (1) on hyper-chylomicronemia and chylomicron dynamics in Zucker fa/fa rats after 14 days repeated dose administration was evaluated.
Zucker (fa/fa) fatty rat of 7-8 weeks of age were purchased from Charles River Laboratory and single-housed under a pathogen free environment with constant room temperature (20-22° C.) and relative humidity (40-50%) and a 6:00 pm-6:00 am dark-light cycle. Rats were provided with free access to food (Lab Diet 5L0D, an irradiated regular rodent diet containing 23% of protein and 4.5% of fat) and water. Initial body weight and body composition (using a NMR analyzer) were measured 6 days post-arrival. The rats were then randomly divided into four dosing groups based BW and fat mass as below—
Dosing was begun at 9-10 weeks of age, once daily (8-10 am) by oral gavage for 14 days. On the day-14 of dosing, a final body composition (after dosing) was measured. On day-15, all animals were given a fatty tolerance test (FTT) after being fasted overnight (15-16 hours), followed by blood and tissue collection.
Fatty Tolerance Test Procedure (FTT): • 1. Following an overnight fast, rats were orally gavaged with a mixture of ^13C-Palmitic Acid (1 and corn oil (1 g of^13C-P dissolved in 5 ml of corn oil) at 5 ml/kg·bw. • 2. Blood samples were collected via tail vein bleeding using 3×300 ul EDTA tubes at the following time points:
0 hour (initial), 1 hour, 2 hour, 3 hour, 4 hour, 5 hour, 6 hour, 8 hour
After the 8 hour bleeding, rats were knocked down in a drop jar using isoflurane. Once sedated, the rats were hooked up to a Midmark Matrx Anesthesia isoflurane machine that dispensed isoflurane vapor at […] with an oxygen flow rate of 1 L/min. Organs and tissues were dissected and frozen immediately in liquid nitrogen and stored at −80° C. LCMS and GCMS were used to assess the incorporation of ^13C lipids into plasma and tissue lipids (n=5 for tissue metabolomics studies).

For `CC(C)OC(=O)C(C)(C)Oc1ccc(C(=O)c2ccc(Cl)cc2)cc1` [Fenofibrate, reference compound], the “gastrocnemius M+16 palmitate labeling (in words)” value was “decreased gastrocnemius M+16 palmitate labeling”, the “% labeling of M+16 phosphatidyl choline PC (34:1) (in words)” value (fenofibrate treated animals) was “significantly lower” and the “appearance of M+16 TG species TG (52:3) and TG (52:4) in plasma (in words)” value (fenofibrate treatment) was “caused a greater increase in M+16 TG species”.
